Some results were stated once for a whole list of compounds, not compound by compound.
Assay: Miscibility of alkyl ketal esters with organic compounds
Assay type: physicochemical
Text: The term “miscible” and its variations (“miscibility”, etc.) are used herein as a synonym for “soluble”, as that term is defined above. A material may be fully or partially miscible in another. As used herein, a material said to be “miscible” in another, without further qualification, is miscible with that other material in all proportions, i.e., mixtures that contain only the two components form clear homogenous solutions in all weight ratios from 99.9:0.1 to 0.1:99.9. A material is said to be “highly miscible” in another material if it is soluble in the other material to the extent of at least 20 parts in 80 parts of the other material, and preferably is soluble in that other material to the extent of at least 50 parts in 50 parts of the other material. A “highly miscible” material may be soluble in the other material to the extent of 99.9 parts to 0.1 part of that other material and all lower proportions. A material is said to be “sparingly miscible” in another (or has “low miscibility” in another material) if is immiscible (as defined below) therein or otherwise not soluble in that other material to the extent of 20 parts in 80 parts of the other material. […] Unless stated otherwise, miscibility is assessed at 25° C.

CCCCOC(=O)CCC1(C)OCC(CO)O1 (centres unmarked) [n-butyl-LGK]
dissolves or is miscible with organic compounds to the extent of (alcohols (ethanol, 1,2-butylene glycol), organic esters (C12-14 alkyl benzoates, isopropyl myristate, octyl palmitate), vegetable oils (castor, corn, soy, safflower)): at least 20 parts of the organic compound in 80 parts of n-butyl-LGK

CCOC(=O)CCC1(C)OCC(CO)O1 (centres unmarked) [Et-LGK]
dissolves or is miscible with organic compounds to the extent of (methanol, ethanol, tetrahydrofuran, acetone, ethyl acetate, ethyl laurate, lauric acid, methylene chloride, toluene, acetic acid, low MW poly(propylene glycol), castor oil): at least 20 parts of the organic compound in 80 parts of ethyl-LGK

From patent US20120128614A1, “SOLVENT, SOLUTION, CLEANING COMPOSITION AND METHODS” (SEGETIS, INC., priority 2009, published 2012)
